PubChem BioAssay AID493246 | Drosophila RNAi Screening Center | 2011
Test: 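Identify essential fly genes by loss of cell viability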 (primary screen). System: Drosophila Kc and S2R+ cells. Reagent: long dsRNA against Drosophila genes. Detection: 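Cell number per well after knock-down, printed as raw plate values; calls were based on per-plate z-scores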. Direction: Kc cell number and S2R+ cell number: higher = more cells remaining. Rule for the call: 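Active when the per-plate z-score of cell number is 3 or more in the direction of fewer cells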.
In all, the deposit lists about 21,000 reagents; this is a random part of those with a known target gene and a result. Of all reagents, 429 (2%) got an active call. 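Values are raw and not normalised between plates; calls rest on per-plate z-scores that were not deposited.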 Unmarked entries are inactive. Not given: the amount of reagent, the time to read-out.

With Ac76E [DRSC09642], what was measured?
Kc cell number, rep 1: 1.44e6; Kc cell number, rep 2: 1.52e6; S2R+ cell number, rep 1: 1.15e6; S2R+ cell number, rep 2: 1.30e6

For Ac76E [DRSC09662], what was measured?
Kc cell number, rep 1: 1.54e6; Kc cell number, rep 2: 1.57e6; S2R+ cell number, rep 1: 1.22e6; S2R+ cell number, rep 2: 1.26e6

With CG15390 [DRSC00404], how do the results read?
Kc cell number, rep 1: 1.39e6; Kc cell number, rep 2: 1.45e6; S2R+ cell number, rep 1: 1.08e6; S2R+ cell number, rep 2: 1.19e6

For CRIF [DRSC11811], what does the deposit list?
Kc cell number, rep 1: 1.32e6; Kc cell number, rep 2: 1.47e6; S2R+ cell number, rep 1: 1.04e6; S2R+ cell number, rep 2: 1.19e6

How did the screen score CAH13 [DRSC06128]?
Kc cell number, rep 1: 1.55e6; Kc cell number, rep 2: 1.57e6; S2R+ cell number, rep 1: 1.31e6; S2R+ cell number, rep 2: 1.49e6

Ordered by “Kc cell number, rep 1” (lowest first): 2 of the entries above
CG15390 [DRSC00404]: Kc cell number, rep 1 = 1.39e6; Kc cell number, rep 2 = 1.45e6; S2R+ cell number, rep 1 = 1.08e6; S2R+ cell number, rep 2 = 1.19e6
Ac76E [DRSC09662]: Kc cell number, rep 1 = 1.54e6; Kc cell number, rep 2 = 1.57e6; S2R+ cell number, rep 1 = 1.22e6; S2R+ cell number, rep 2 = 1.26e6

The listing continues.
Which result is listed for Brf [DRSC13228]?
Kc cell number, rep 1: 1.76e6; Kc cell number, rep 2: 1.75e6; S2R+ cell number, rep 1: 1.07e6; S2R+ cell number, rep 2: 1.15e6

What did the screen give for Brf [DRSC14166]?
Kc cell number, rep 1: 1.34e6; Kc cell number, rep 2: 1.44e6; S2R+ cell number, rep 1: 1.16e6; S2R+ cell number, rep 2: 1.28e6

For Brf [DRSC14167], what was measured?
Kc cell number, rep 1: 1.27e6; Kc cell number, rep 2: 1.31e6; S2R+ cell number, rep 1: 1.21e6; S2R+ cell number, rep 2: 1.30e6

With ppk20 [DRSC16260], what does the deposit list?
Kc cell number, rep 1: 1.43e6; Kc cell number, rep 2: 1.44e6; S2R+ cell number, rep 1: 1.01e6; S2R+ cell number, rep 2: 1.05e6

How did the screen score Or71a [DRSC11244]?
Kc cell number, rep 1: 1.40e6; Kc cell number, rep 2: 1.56e6; S2R+ cell number, rep 1: 1.34e6; S2R+ cell number, rep 2: 1.49e6

How did the screen score CG17724 [DRSC06687]?
Kc cell number, rep 1: 1.35e6; Kc cell number, rep 2: 1.32e6; S2R+ cell number, rep 1: 1.02e6; S2R+ cell number, rep 2: 8.28e5

For Ugt36F1 [DRSC02601], how do the results read?
Kc cell number, rep 1: 1.54e6; Kc cell number, rep 2: 1.58e6; S2R+ cell number, rep 1: 1.32e6; S2R+ cell number, rep 2: 3.47e5
